Experimental data from the supplement of paper PMC10032668.
± gives the standard deviation of the averaged measurements. The list shows a part of the results. Only hits are listed; about a third recur on repeated control peptides.

What was measured:
Assay in all cases: PRISMA enrichment of interactor (LFQ) in peptide spot vs all other peptide spots (log2 fold change); higher = stronger / more specific binding of the interactor to the peptide
[1] = biological target: AK6, Q9Y3D8
Protocol: (§1)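 PRISMA: 15-aa overlapping tiles (offset 8 aa) of 60 microproteins, plus SOS1/GLUT1 control peptides, were spot-synthesized on cellulose membranes in triplicate. Membranes were incubated with benzonase-treated HEK293T lysate, and bound proteins were identified by LC-MS/MS with LFQ. Enrichment is the log2 fold change of each protein in one spot versus all other spots. Only interactors passing the significance cutoff are listed.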

[2] = biological target: ANP32B, Q92688
Protocol: as §1

[3] = biological target: BAZ1A, Q9NRL2
Protocol: as §1

[4] = biological target: C1QBP, Q07021
Protocol: as §1

[5] = biological target: FAM133B, Q5BKY9
Protocol: as §1

[6] = biological target: FN1, P02751
Protocol: as §1

[7] = biological target: HMMR, O75330
Protocol: as §1

[8] = biological target: IGLC3, P0DOY3
Protocol: as §1

[9] = biological target: MCM5, P33992
Protocol: as §1

[10] = biological target: NAP1L1, P55209
Protocol: as §1

[11] = substrate: NSF, P46459
Protocol: as §1

[12] = biological target: PDIA4, P13667
Protocol: as §1

[13] = biological target: PDS5B, Q9NTI5
Protocol: as §1

[14] = biological target: PTGES3, Q15185
Protocol: as §1

[15] = biological target: REXO4, Q9GZR2
Protocol: as §1

[16] = biological target: RPGRIP1L, Q68CZ1
Protocol: as §1

[17] = biological target: RPLP1, P05386
Protocol: as §1

[18] = biological target: TK1, P04183
Protocol: as §1

[19] = biological target: TNPO3, Q9Y5L0
Protocol: as §1

[20] = biological target: ZFP62, Q8NB50
Protocol: as §1

[21] = biological target: ALDH9A1, P49189
Protocol: as §1

[22] = biological target: APEX1, P27695
Protocol: as §1

[23] = biological target: CDC73, Q6P1J9
Protocol: as §1

[24] = biological target: CDK11A, Q9UQ88
Protocol: as §1

[25] = biological target: CKS2, P33552
Protocol: as §1

[26] = biological target: COPE, O14579
Protocol: as §1

[27] = biological target: CSNK2A1, P68400
Protocol: as §1

[28] = biological target: CWC15, Q9P013
Protocol: as §1

[29] = biological target: DNAJB11, Q9UBS4
Protocol: as §1

[30] = biological target: EEF1E1, O43324
Protocol: as §1

[31] = biological target: EIF1, P41567
Protocol: as §1

[32] = biological target: FAM98B, Q52LJ0
Protocol: as §1

[33] = biological target: FLOT2, Q14254
Protocol: as §1

[34] = biological target: GPD1L, Q8N335
Protocol: as §1

[35] = biological target: GTPBP1, O00178
Protocol: as §1

[36] = biological target: KNOP1, Q1ED39
Protocol: as §1

[37] = biological target: MRPS28, Q9Y2Q9
Protocol: as §1

[38] = biological target: PAICS, P22234
Protocol: as §1

[39] = biological target: PDLIM1, O00151
Protocol: as §1

[40] = biological target: PGD, P52209
Protocol: as §1

[41] = biological target: PIGS, Q96S52
Protocol: as §1

[42] = biological target: PSMA5, P28066
Protocol: as §1

[43] = biological target: PSMB5, P28074
Protocol: as §1

[44] = biological target: RAB7A, P51149
Protocol: as §1

[45] = biological target: RRP9, O43818
Protocol: as §1

[46] = biological target: SDF2, Q99470
Protocol: as §1

[47] = biological target: SDF2L1, Q9HCN8
Protocol: as §1

[48] = biological target: SEC16A, O15027
Protocol: as §1

[49] = biological target: SSR1, P43307
Protocol: as §1

[50] = biological target: TTC27, Q6P3X3
Protocol: as §1

[51] = biological target: URB1, O60287
Protocol: as §1

Which results are given for TAPPPAAAHGTRARR [THAP7]?
PRISMA enrichment of interactor (log2) [1]: 4.75; PRISMA enrichment of interactor (log2) [2]: 6.08; PRISMA enrichment of interactor (log2) [3]: 8.92; PRISMA enrichment of interactor (log2) [4]: 6.5; PRISMA enrichment of interactor (log2) [5]: 11.5; PRISMA enrichment of interactor (log2) [6]: 4.53; PRISMA enrichment of interactor (log2) [7]: 6.1; PRISMA enrichment of interactor (log2) [8]: 9.67; PRISMA enrichment of interactor (log2) [9]: 5.54; PRISMA enrichment of interactor (log2) [10]: 5.28 ± 0.45; PRISMA enrichment of interactor (log2) [11]: 7.42; PRISMA enrichment of interactor (log2) [12]: 6.12; PRISMA enrichment of interactor (log2) [13]: 4.22; PRISMA enrichment of interactor (log2) [14]: 4.62; PRISMA enrichment of interactor (log2) [15]: 6.08; PRISMA enrichment of interactor (log2) [16]: 4.61; PRISMA enrichment of interactor (log2) [17]: 5.91; PRISMA enrichment of interactor (log2) [18]: 4.19; PRISMA enrichment of interactor (log2) [19]: 5.17; PRISMA enrichment of interactor (log2) [20]: 7.03

Which results are given for HSWVTLVIHSGGDLT [LINC01128]?
PRISMA enrichment of interactor (log2) [1]: 5.02; PRISMA enrichment of interactor (log2) [21]: 5.28; PRISMA enrichment of interactor (log2) [22]: 3.98; PRISMA enrichment of interactor (log2) [23]: 5.05; PRISMA enrichment of interactor (log2) [24]: 9.8; PRISMA enrichment of interactor (log2) [25]: 4.88; PRISMA enrichment of interactor (log2) [26]: 5.83; PRISMA enrichment of interactor (log2) [27]: 5.55; PRISMA enrichment of interactor (log2) [28]: 4.5; PRISMA enrichment of interactor (log2) [29]: 5.31; PRISMA enrichment of interactor (log2) [30]: 5.37; PRISMA enrichment of interactor (log2) [31]: 5.07; PRISMA enrichment of interactor (log2) [32]: 5.53; PRISMA enrichment of interactor (log2) [33]: 8.54; PRISMA enrichment of interactor (log2) [34]: 5.23; PRISMA enrichment of interactor (log2) [35]: 4.14; PRISMA enrichment of interactor (log2) [36]: 5.98; PRISMA enrichment of interactor (log2) [37]: 4.76; PRISMA enrichment of interactor (log2) [38]: 4.82; PRISMA enrichment of interactor (log2) [39]: 5.18; PRISMA enrichment of interactor (log2) [40]: 5.72; PRISMA enrichment of interactor (log2) [41]: 4.23; PRISMA enrichment of interactor (log2) [42]: 4.01; PRISMA enrichment of interactor (log2) [43]: 5.95; PRISMA enrichment of interactor (log2) [44]: 5.68; PRISMA enrichment of interactor (log2) [45]: 6; PRISMA enrichment of interactor (log2) [46]: 4.09; PRISMA enrichment of interactor (log2) [47]: 5.01; PRISMA enrichment of interactor (log2) [48]: 4.64; PRISMA enrichment of interactor (log2) [49]: 4.31; PRISMA enrichment of interactor (log2) [50]: 4.27; PRISMA enrichment of interactor (log2) [51]: 6.05
